PubChem BioAssay AID256 (DTP/NCI, 2004)
The list is a part of this screen's results and no random one: it gathers tests that were run many times, whatever their T/C, doses with no T/C, and many T/C values between a quarter and a half above the control. Further doses and runs are listed elsewhere. T/C gives the treated animals as a percentage of the vehicle group. Some doses have a count of surviving animals in place of a T/C: the source files T/C as zero there, which appears to mark a toxic dose or a test without result, not a measured value. Some doses without a T/C left all or most animals alive at the check, yet need not have been tolerated: the source hardly ever lists a survival T/C far under the control, and the zero likely stands for such cases as well. Survivors were counted at the toxicity check, usually on the fifth day, unless a day is given; later deaths do not show. Schedules are NCI's codes, read here as Q, the interval in days (D) or hours (H), X, the number of doses. Some schedule codes hold Z or #, which are not explained here. Where survival is the endpoint, the PubChem record calls one and a half times the control and up active, and a quarter to a half above the control has no call in these data; cut-offs in other NCI protocols can differ. Some entries were tested several times; the values are given in rising order.

Test system: CD2F1 mice, L1210 leukemia ip, survival T/C
Experiment: NCI In Vivo Anticancer Drug Screen. Data for tumor model L1210 Leukemia (intraperitoneal) in CD2F1 (CDF1) mice
Details: higher T/C = longer survival
Method in brief: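 Tumor-bearing mice (transplanted tumor) were split into treated and vehicle control groups, and the measured endpoint of each treated group was divided by that of its vehicle controls.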

[1] = T/C endpoint: mean survival time, dose: 200.0 mg/kg/injection, schedule: Q01DX001 (ip), vehicle: saline
[2] = T/C endpoint: mean survival time, dose: 150.0 mg/kg/injection, schedule: Q01DX001 (ip), vehicle: other
[3] = T/C endpoint: mean survival time, dose: 300.0 mg/kg/injection, schedule: Q01DX001 (ip), vehicle: other
[4] = T/C endpoint: mean survival time, dose: 150.0 mg/kg/injection, schedule: Q01DX001 (ip), vehicle: saline
[5] = T/C endpoint: mean survival time, dose: 300.0 mg/kg/injection, schedule: Q01DX001 (ip), vehicle: saline
[6] = T/C endpoint: mean survival time, dose: 400.0 mg/kg/injection, schedule: Q04DX002 (ip), vehicle: saline with Tween-80
[7] = T/C endpoint: mean survival time, dose: 400.0 mg/kg/injection, schedule: Q04DX003 (ip), vehicle: Klucel (hydroxypropylcellulose) (HPC)
[8] = T/C endpoint: mean survival time, dose: 400.0 mg/kg/injection, schedule: Q04DX003 (ip), vehicle: saline with Tween-80
[9] = T/C endpoint: mean survival time, dose: 100.0 mg/kg/injection, schedule: Q04DX002 (ip), vehicle: saline with Tween-80

Brc1ccc(C[N+]23CCN(CC2)CC3)cc1
survivor count (T/C endpoint: mean survival time, dose: 100.0 mg/kg/injection, schedule: Q01DX001 (ip), vehicle: saline): 2 of 6 | survivor count [1]: 0 of 6 | survivor count (T/C endpoint: mean survival time, dose: 400.0 mg/kg/injection, schedule: Q01DX001 (ip), vehicle: saline): 0 of 6

CN=C(NC)c1ccc(NC(=O)c2ccc(C(=O)Nc3ccc(C(=NC)NC)cc3)c(N)c2)cc1
survivor count (T/C endpoint: mean survival time, dose: 72.0 mg/kg/injection, schedule: Q01DX Z (ip), vehicle: water): 1 of 6 | survivor count (T/C endpoint: mean survival time, dose: 144.0 mg/kg/injection, schedule: Q01DX Z (ip), vehicle: water): 0 of 6

N#CN=Nc1ccc(Cl)cc1
survivor count (T/C endpoint: mean survival time, dose: 75.0 mg/kg/injection, schedule: Q01DX001 (ip), vehicle: other): 0 of 6 | survivor count [2]: 0 of 6 | survivor count [3]: 0 of 6

O=c1[nH]c2c(ncn2C2OC3COP(=O)(O)OC3C2O)c2nccn12 (stereo not given)
survivor count (T/C endpoint: mean survival time, dose: 200.0 mg/kg/injection, schedule: Q01DX005 (ip), vehicle: distilled water + Tween-80): 0 of 4

CN(CCCOS(C)(=O)=O)CCCN(C)CCCOS(C)(=O)=O
T/C [4]: 127 % of control | T/C [1]: 132 % of control

O=C(O)C(F)(F)C(F)(F)C(F)(F)C(F)=C(F)F
survivor count [5]: 2 of 6

CN(C)c1nc(N)cc(-c2ccncc2)n1
survivor count (T/C endpoint: mean survival time, dose: 400.0 mg/kg/injection, schedule: Q04DX002 (ip), vehicle: saline): 0 of 3

C=CCC#N
survivor count (T/C endpoint: mean survival time, dose: 200.0 mg/kg/injection, schedule: Q04DX003 (ip), vehicle: saline sonified): 0 of 6 | survivor count (T/C endpoint: mean survival time, dose: 400.0 mg/kg/injection, schedule: Q04DX003 (ip), vehicle: saline sonified): 0 of 6

COC(=O)/C([O-])=C(\C(=O)OC)[n+]1cc(Br)cc2ccccc21
survivor count [6]: 1 of 3

CC1([N+](=O)[O-])COC(c2ccc(Cl)cc2)OC1 (stereo not given)
survivor count [7]: 1 of 3

O/N=C(/Cl)c1ccccn1
survivor count (T/C endpoint: mean survival time, dose: 15.0 mg/kg/injection, schedule: Q01DX001 (ip), vehicle: saline): 0 of 6 | survivor count (T/C endpoint: mean survival time, dose: 30.0 mg/kg/injection, schedule: Q01DX001 (ip), vehicle: saline): 0 of 6 | survivor count (T/C endpoint: mean survival time, dose: 75.0 mg/kg/injection, schedule: Q01DX001 (ip), vehicle: saline): 0 of 6 | survivor count [4]: 0 of 6 | survivor count [5]: 0 of 6

COC(=O)c1ccc(O)c([N+](=O)[O-])c1
survivor count [8]: 5 of 6

CCCCC(/C=N/N=C/C(CC)CCCC)CC (stereo not given)
survivor count [9]: 3 of 3 | survivor count [6]: 3 of 3

CCCCOC(=O)c1cc([N+](=O)[O-])cc([N+](=O)[O-])c1Sc1ncnc2nc[nH]c12
survivor count (T/C endpoint: mean survival time, dose: 150.0 mg/kg/injection, schedule: Q01DX005 (ip), vehicle: other): 0 of 3

C(#CCNC1CCCCC1)CNC1CCCCC1
survivor count [9]: 0 of 3 | survivor count (T/C endpoint: mean survival time, dose: 200.0 mg/kg/injection, schedule: Q04DX002 (ip), vehicle: saline with Tween-80): 0 of 3 | survivor count [6]: 0 of 3

Cc1n[nH]c2ccc(Br)cc2c1=O
survivor count [8]: 2 of 6

CCC(C)(O)c1cnc(CC(C)C)c(=O)n1O (stereo not given)
survivor count [5]: 0 of 6

O=C(O)/C=C/S(=O)(=O)O
survivor count [4]: 1 of 6 | survivor count [5]: 0 of 6

NNC(=O)CNc1cccc(Br)c1
survivor count (T/C endpoint: mean survival time, dose: 400.0 mg/kg/injection, schedule: Q01DX001 (ip), vehicle: Klucel (hydroxypropylcellulose) (HPC)): 1 of 6

CC1=C(N2CC2)C(=O)c2c(COC(N)=O)c3n(c2C1=O)CCC3OC(N)=O (stereo not given)
T/C (T/C endpoint: mean survival time, dose: 12.0 mg/kg/injection, schedule: Q01DX001 (ip), vehicle: distilled water + Tween-80): 134 % of control | T/C (T/C endpoint: mean survival time, dose: 24.0 mg/kg/injection, schedule: Q01DX001 (ip), vehicle: distilled water + Tween-80): 131 and 138 % of control

CCc1ccc(CC)c(CC)c1CC
survivor count [8]: 2 of 6

COc1cc(Cl)ccc1NC(=O)Nc1ccccc1C
survivor count [9]: 3 of 3

CCC1CCCCN1C (stereo not given)
survivor count (T/C endpoint: mean survival time, dose: 200.0 mg/kg/injection, schedule: Q04DX003 (ip), vehicle: saline with Tween-80): 0 of 6 | survivor count [8]: 0 of 6

Nc1nc(-c2cccc([N+](=O)[O-])c2)c(N=Nc2ccc([N+](=O)[O-])cc2)s1
survivor count (T/C endpoint: mean survival time, dose: 400.0 mg/kg/injection, schedule: Q01DX001 (ip), vehicle: saline with Tween-80): 6 of 6

Cc1cc(NC(=O)Nc2ccc(C3=NCCCN3)cc2)ccc1NC(=O)Nc1ccc(C2=NCCCN2)cc1
survivor count (T/C endpoint: mean survival time, dose: 62.0 mg/kg/injection, schedule: Q01DX Z (ip), vehicle: water): 0 of 6 | survivor count (T/C endpoint: mean survival time, dose: 125.0 mg/kg/injection, schedule: Q01DX Z (ip), vehicle: water): 1 of 6 | survivor count (T/C endpoint: mean survival time, dose: 250.0 mg/kg/injection, schedule: Q01DX Z (ip), vehicle: water): 0 of 6 | survivor count (T/C endpoint: mean survival time, dose: 500.0 mg/kg/injection, schedule: Q01DX Z (ip), vehicle: water): 0 of 6

O=C1CC(C(=O)O)C2(CCCCCC2)O1 (stereo not given)
survivor count (T/C endpoint: median survival time, dose: 100.0 mg/kg/injection, schedule: Q04DX003 (ip), vehicle: saline with Tween-80): 3 of 3

O=C(O)C(CSC(c1ccccc1)(c1ccccc1)c1ccccc1)NC(c1ccccc1)(c1ccccc1)c1ccccc1 (stereo not given)
survivor count [2]: 0 of 6 | survivor count [3]: 0 of 6

Cn1c(=O)sc2ccccc21
survivor count [6]: 1 of 3

NC1=C(Cl)C(=O)C(N)=C(Cl)C1=O
survivor count [8]: 0 of 3

CCCCCCC[CH2][Sn]([CH2]CCCCCCC)([NH]S(=O)(=O)c1ccc(C)cc1)[NH]S(=O)(=O)c1ccc(C)cc1
survivor count [3]: 0 of 6

O=C(Nc1ccc([N+](=O)[O-])cc1)OCC#CC#CCOC(=O)Nc1ccc([N+](=O)[O-])cc1
survivor count [7]: 1 of 6

CO[C@@]12[C@@H]3N[C@@H]3CN1C1=C(C(=O)C(N3CCCC3)=C(C)C1=O)[C@@H]2COC(N)=O
T/C (T/C endpoint: median survival time, dose: 6.0 mg/kg/injection, schedule: Q01DX001 (ip), vehicle: saline with Tween-80): 133 and 139 % of control

O=CNc1ccc2c(c1)C(Br)c1ccccc1-2 (stereo not given)
survivor count (T/C endpoint: mean survival time, dose: 200.0 mg/kg/injection, schedule: Q01DX009 (ip), vehicle: saline with Tween-80): 6 of 6 | survivor count (T/C endpoint: mean survival time, dose: 400.0 mg/kg/injection, schedule: Q01DX009 (ip), vehicle: saline with Tween-80): 3 of 6
